{"source": "PubChem BioAssay AID1259405 (NCATS, 2018)", "screen": "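Mouse-designed siRNAs used to find CHO productivity engineering targets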 (primary screen)", "cell system": "Chinese hamster CHO-K1 ovary cells with stable secreted eGFP expression", "knock-down reagent": "single siRNA against mouse genes, 0.8 pmol siRNA per well (2 µl of 400 nM stock)", "timing": "3 days", "measured": "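Per-well intracellular GFP measured by laser scanning cytometry, plus viability from ATP luminescence, each relative to plate median of non-targeting control wells, in %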", "reading the numbers": "GFP, % of control: higher = more GFP per well, higher productivity; viability (ATP), % of control: higher = more viable cells (more ATP)", "call rule": "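a knock-down is called active if GFP reaches 120% or more of non-targeting control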", "note": "Here is a random part of about 50,000 deposited reagents. In the full data, about 4,000 (8%) got an active call. 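Mouse siRNA library applied to hamster cells; one well for each siRNA.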 Reagents against one gene are numbered here."}
{"gene symbol": "Mesp1 (mesoderm posterior 1)", "siRNA no.": 1, "GFP, % of control": 181, "viability (ATP), % of control": 67.2, "activity call": "active"}
{"gene symbol": "Mesp1 (mesoderm posterior 1)", "siRNA no.": 2, "GFP, % of control": 83.5, "viability (ATP), % of control": 82.5, "activity call": "inactive"}
{"gene symbol": "Mesp1 (mesoderm posterior 1)", "siRNA no.": 3, "GFP, % of control": 96.3, "viability (ATP), % of control": 46.3, "activity call": "inactive"}
{"gene symbol": "Ssh3 (slingshot protein phosphatase 3)", "siRNA no.": 1, "GFP, % of control": 95.8, "viability (ATP), % of control": 50.5, "activity call": "inactive"}
{"gene symbol": "Ssh3 (slingshot protein phosphatase 3)", "siRNA no.": 2, "GFP, % of control": 85.1, "viability (ATP), % of control": 65.4, "activity call": "inactive"}
{"gene symbol": "Ssh3 (slingshot protein phosphatase 3)", "siRNA no.": 3, "GFP, % of control": 100, "viability (ATP), % of control": 68.4, "activity call": "inactive"}
{"gene symbol": "Smarca5 (SNF2 related chromatin remodeling ATPase 5)", "siRNA no.": 1, "GFP, % of control": 75.6, "viability (ATP), % of control": 69.3, "activity call": "inactive"}
{"gene symbol": "Smarca5 (SNF2 related chromatin remodeling ATPase 5)", "siRNA no.": 2, "GFP, % of control": 86, "viability (ATP), % of control": 88.3, "activity call": "inactive"}
{"gene symbol": "Smarca5 (SNF2 related chromatin remodeling ATPase 5)", "siRNA no.": 3, "GFP, % of control": 87.1, "viability (ATP), % of control": 55.2, "activity call": "inactive"}
{"gene symbol": "Sclt1 (sodium channel and clathrin linker 1)", "siRNA no.": 1, "GFP, % of control": 73.7, "viability (ATP), % of control": 56.7, "activity call": "inactive"}
{"gene symbol": "Sclt1 (sodium channel and clathrin linker 1)", "siRNA no.": 2, "GFP, % of control": 91.2, "viability (ATP), % of control": 92.9, "activity call": "inactive"}
{"gene symbol": "Sclt1 (sodium channel and clathrin linker 1)", "siRNA no.": 3, "GFP, % of control": 89.1, "viability (ATP), % of control": 65, "activity call": "inactive"}
{"gene symbol": "Pank2 (pantothenate kinase 2)", "siRNA no.": 1, "GFP, % of control": 90.6, "viability (ATP), % of control": 85.1, "activity call": "inactive"}
{"gene symbol": "Pank2 (pantothenate kinase 2)", "siRNA no.": 2, "GFP, % of control": 67.3, "viability (ATP), % of control": 57.3, "activity call": "inactive"}
{"gene symbol": "Pank2 (pantothenate kinase 2)", "siRNA no.": 3, "GFP, % of control": 68.8, "viability (ATP), % of control": 74, "activity call": "inactive"}
{"gene symbol": "Zkscan6 (zinc finger with KRAB and SCAN domains 6)", "siRNA no.": 1, "GFP, % of control": 71.2, "viability (ATP), % of control": 47.5, "activity call": "inactive"}
{"gene symbol": "Zkscan6 (zinc finger with KRAB and SCAN domains 6)", "siRNA no.": 2, "GFP, % of control": 69.2, "viability (ATP), % of control": 64.2, "activity call": "inactive"}
{"gene symbol": "Zkscan6 (zinc finger with KRAB and SCAN domains 6)", "siRNA no.": 3, "GFP, % of control": 55.8, "viability (ATP), % of control": 59.6, "activity call": "inactive"}
{"gene symbol": "Ifitm5 (interferon induced transmembrane protein 5)", "siRNA no.": 1, "GFP, % of control": 48.6, "viability (ATP), % of control": 49.6, "activity call": "inactive"}
{"gene symbol": "Ifitm5 (interferon induced transmembrane protein 5)", "siRNA no.": 2, "GFP, % of control": 56.9, "viability (ATP), % of control": 87.7, "activity call": "inactive"}
{"gene symbol": "Ifitm5 (interferon induced transmembrane protein 5)", "siRNA no.": 3, "GFP, % of control": 81.8, "viability (ATP), % of control": 101, "activity call": "inactive"}
{"gene symbol": "Ngly1 (N-glycanase 1)", "siRNA no.": 1, "GFP, % of control": 96, "viability (ATP), % of control": 94.5, "activity call": "inactive"}
{"gene symbol": "Ngly1 (N-glycanase 1)", "siRNA no.": 2, "GFP, % of control": 79, "viability (ATP), % of control": 61.9, "activity call": "inactive"}
{"gene symbol": "Ngly1 (N-glycanase 1)", "siRNA no.": 3, "GFP, % of control": 114, "viability (ATP), % of control": 85.1, "activity call": "inactive"}
{"gene symbol": "Notch2 (notch 2)", "siRNA no.": 1, "GFP, % of control": 115, "viability (ATP), % of control": 95.4, "activity call": "inactive"}
{"gene symbol": "Notch2 (notch 2)", "siRNA no.": 2, "GFP, % of control": 87.6, "viability (ATP), % of control": 81.2, "activity call": "inactive"}
{"gene symbol": "Notch2 (notch 2)", "siRNA no.": 3, "GFP, % of control": 58.9, "viability (ATP), % of control": 90.8, "activity call": "inactive"}
{"gene symbol": "Nub1 (negative regulator of ubiquitin-like proteins 1)", "siRNA no.": 1, "GFP, % of control": 51, "viability (ATP), % of control": 62.7, "activity call": "inactive"}
{"gene symbol": "Nub1 (negative regulator of ubiquitin-like proteins 1)", "siRNA no.": 2, "GFP, % of control": 83.4, "viability (ATP), % of control": 90.8, "activity call": "inactive"}
{"gene symbol": "Nub1 (negative regulator of ubiquitin-like proteins 1)", "siRNA no.": 3, "GFP, % of control": 88.8, "viability (ATP), % of control": 98.8, "activity call": "inactive"}
{"gene symbol": "Or1j1 (olfactory receptor family 1 subfamily J member 1)", "siRNA no.": 1, "GFP, % of control": 81.7, "viability (ATP), % of control": 67.5, "activity call": "inactive"}
{"gene symbol": "Or1j1 (olfactory receptor family 1 subfamily J member 1)", "siRNA no.": 2, "GFP, % of control": 106, "viability (ATP), % of control": 83.1, "activity call": "inactive"}
{"gene symbol": "Or1j1 (olfactory receptor family 1 subfamily J member 1)", "siRNA no.": 3, "GFP, % of control": 59.9, "viability (ATP), % of control": 93.4, "activity call": "inactive"}
{"gene symbol": "Lyzl6 (lysozyme-like 6)", "siRNA no.": 1, "GFP, % of control": 54, "viability (ATP), % of control": 20.8, "activity call": "inactive"}
{"gene symbol": "Lyzl6 (lysozyme-like 6)", "siRNA no.": 2, "GFP, % of control": 81.8, "viability (ATP), % of control": 79.9, "activity call": "inactive"}
{"gene symbol": "Lyzl6 (lysozyme-like 6)", "siRNA no.": 3, "GFP, % of control": 71.9, "viability (ATP), % of control": 54.5, "activity call": "inactive"}
{"gene symbol": "Stk32a (serine/threonine kinase 32A)", "siRNA no.": 1, "GFP, % of control": 71, "viability (ATP), % of control": 85, "activity call": "inactive"}
{"gene symbol": "Stk32a (serine/threonine kinase 32A)", "siRNA no.": 2, "GFP, % of control": 45.2, "viability (ATP), % of control": 73.1, "activity call": "inactive"}
{"gene symbol": "Stk32a (serine/threonine kinase 32A)", "siRNA no.": 3, "GFP, % of control": 44.6, "viability (ATP), % of control": 66.1, "activity call": "inactive"}
{"gene symbol": "Gpatch3 (G patch domain containing 3)", "siRNA no.": 1, "GFP, % of control": 83.2, "viability (ATP), % of control": 88.8, "activity call": "inactive"}
{"gene symbol": "Gpatch3 (G patch domain containing 3)", "siRNA no.": 2, "GFP, % of control": 111, "viability (ATP), % of control": 101, "activity call": "inactive"}
{"gene symbol": "Gpatch3 (G patch domain containing 3)", "siRNA no.": 3, "GFP, % of control": 85.2, "viability (ATP), % of control": 40.9, "activity call": "inactive"}
{"gene symbol": "Sycp2 (synaptonemal complex protein 2)", "siRNA no.": 1, "GFP, % of control": 109, "viability (ATP), % of control": 85.2, "activity call": "inactive"}
{"gene symbol": "Sycp2 (synaptonemal complex protein 2)", "siRNA no.": 2, "GFP, % of control": 57.9, "viability (ATP), % of control": 64.5, "activity call": "inactive"}
{"gene symbol": "Sycp2 (synaptonemal complex protein 2)", "siRNA no.": 3, "GFP, % of control": 118, "viability (ATP), % of control": 85, "activity call": "inactive"}
{"gene symbol": "Coasy (Coenzyme A synthase)", "siRNA no.": 1, "GFP, % of control": 94, "viability (ATP), % of control": 80.2, "activity call": "inactive"}
{"gene symbol": "Nxph4 (neurexophilin 4)", "siRNA no.": 1, "GFP, % of control": 122, "viability (ATP), % of control": 112, "activity call": "active"}
{"gene symbol": "Nxph4 (neurexophilin 4)", "siRNA no.": 2, "GFP, % of control": 80.3, "viability (ATP), % of control": 87.8, "activity call": "inactive"}
{"gene symbol": "Nxph4 (neurexophilin 4)", "siRNA no.": 3, "GFP, % of control": 60.2, "viability (ATP), % of control": 65.7, "activity call": "inactive"}
{"gene symbol": "Plin5 (perilipin 5)", "siRNA no.": 1, "GFP, % of control": 86.4, "viability (ATP), % of control": 47.4, "activity call": "inactive"}
{"gene symbol": "Plin5 (perilipin 5)", "siRNA no.": 2, "GFP, % of control": 103, "viability (ATP), % of control": 96.2, "activity call": "inactive"}
{"gene symbol": "Plin5 (perilipin 5)", "siRNA no.": 3, "GFP, % of control": 66.9, "viability (ATP), % of control": 77.3, "activity call": "inactive"}
